This note sets out measurements from PubChem BioAssay AID180 (DTP/NCI, 2004).

The subject of this experiment is BDF1 mice, Adenocarcinoma 755 s.c., tumor weight T/C. Put plainly: NCI In Vivo Anticancer Drug Screen. Data for tumor model Adenocarcinoma 755 (subcutaneous) in B6D2F1 (BDF1) mice. As to conditions: T/C endpoint: mean tumor weight, higher T/C = larger tumour; for T/C: evaluated on day 12. The method in brief: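 Transplantable tumor implanted; mice dosed with compound or vehicle; survival or tumor size recorded; ratio of treated to vehicle control reported.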

[1] abbreviates: dose: 10.0 mg/kg/injection, schedule: Q01DX011 (sc), vehicle: steroid suspending solution.
[2] abbreviates: dose: 250.0 mg/kg/injection, schedule: Q01DX011 (ip), vehicle: methylcellulose (MC).
Where [3] appears, read: dose: 225.0 mg/kg/injection, schedule: Q01DX011 (ip), vehicle: methylcellulose (MC).

The list shows only some results of the screen, not a fair sample: it is rich in T/C values a quarter to a half above the control, in often repeated tests (any T/C) and in doses without a T/C. Further doses and runs are listed elsewhere. T/C gives the treated animals as a percentage of the vehicle group. Schedules are NCI's codes, read here as Q, the interval in days (D) or hours (H), X, the number of doses. Some T/C values carry the count of animals alive at the toxicity check (mostly the fifth day); without a count, all were alive then. Some doses have a count of surviving animals in place of a T/C: the source files T/C as zero there, which appears to mark a toxic dose or a test without result, not a measured value. Counts of survivors are from the toxicity check (mostly the fifth day) where no day follows; animals may have died later. Some entries were tested several times; the results are listed from low to high.

`O=C(/C=C/C(=O)c1ccccc1)c1ccccc1`: the survivor count (dose: 180.0 mg/kg/injection, schedule: Q01DX011 (ip), vehicle: other) is 5 of 10.
Consider `N#CCCn1cnc2c(=S)nc[nH]c21`, for which the survivor count is on record as 2 of 10 (dose: 28.0 mg/kg/injection, schedule: Q01DX011 (ip), vehicle: other); 0 of 10 (dose: 56.0 mg/kg/injection, schedule: Q01DX011 (ip), vehicle: other); 0 of 10 (dose: 112.0 mg/kg/injection, schedule: Q01DX011 (ip), vehicle: other).
On to `C1CN1P1(N2CC2)=NP(N2CC2)(N2CC2)=NP(N2CC2)(N2CC2)=N1`, for which the survivor count (dose: 24.0 mg/kg/injection, schedule: Q01DX011 (ip), vehicle: carboxymethylcellulose (CMC)) is listed as 3 of 10.
In the case of `O/N=C1\CCCC\C1=N/O`, the T/C (dose: 100.0 mg/kg/injection, schedule: Q01DX011 (ip), vehicle: other) was 125 % of control.
For the molecule `C[C@]12CC[C@H](O)C[C@H]1CC[C@@H]1[C@@H]2CC[C@]2(C)[C@@H](C3=CC(=O)OC3)[C@@H](O)C[C@]12O`, the T/C under setting [1] is 127 % of control.
As for `CCc1c(Cl)nc(N)nc1Nc1ccccc1Cl`, for the setting “dose: 31.0 mg/kg/injection, schedule: Q01DX011 (ip), vehicle: methylcellulose (MC)”, the T/C was 130 % of control [9 of 10 alive]. The survivor count under setting [2] is listed as 5 of 10.
In the case of `CCCCCCCCSc1ncnc2c1ncn2CCCC`, for the setting “dose: 187.0 mg/kg/injection, schedule: Q01DX011 (ip), vehicle: saline”, the T/C was 135 % of control.
`Oc1ccc2ccccc2c1N=Nc1ccccc1`: under “dose: 400.0 mg/kg/injection, schedule: Q01DX011 (ip), vehicle: saline”, the survivor count is 2 of 10.
For `C[C@H]1C[C@@H]2[C@H]([C@@H](O)C[C@@]3(C)[C@H]2CC[C@]3(O)C(=O)CO)[C@@]2(C)C=CC(=O)C=C12`, the survivor count is, setting by setting: (dose: 114.0 mg/kg/injection, schedule: Q01DX011 (sc), vehicle: water) 6 of 10; (dose: 115.0 mg/kg/injection, schedule: Q01DX011 (sc), vehicle: steroid suspending solution) 6 of 10; (dose: 460.0 mg/kg/injection, schedule: Q01DX011 (sc), vehicle: steroid suspending solution) 2 of 10.
For `Cn1cnc2nc[nH]c2c1=S`, the survivor count under setting [3] is on record as 4 of 10.
Turning to `Clc1ncnc2c1ncn2C1CCCS1` (configuration not stated), where the note is “dose: 75.0 mg/kg/injection, schedule: Q01DX011 (ip), vehicle: methylcellulose (MC)”, the T/C is 133 % of control. For the same molecule, the survivor count under setting [3] is 5 of 10.
`CN(C)[C@@H]1C(=O)C(C(=O)NCN(CCCl)CCCl)=C(O)[C@@]2(O)C(=O)C3=C(O)c4c(O)cccc4[C@@](C)(O)[C@H]3C[C@@H]12`: the T/C was 134 % of control (dose: 1.0 mg/kg/injection, schedule: Q01DX011 (ip), vehicle: methylcellulose (MC)) and 125 % of control (dose: 2.5 mg/kg/injection, schedule: Q01DX011 (ip), vehicle: methylcellulose (MC)). Besides, the survivor count (dose: 40.0 mg/kg/injection, schedule: Q01DX011 (ip), vehicle: methylcellulose (MC)) is recorded as 5 of 10; the survivor count (dose: 60.0 mg/kg/injection, schedule: Q01DX011 (ip), vehicle: saline) is listed as 5 of 10; the survivor count (dose: 80.0 mg/kg/injection, schedule: Q01DX011 (ip), vehicle: methylcellulose (MC)) is on record as 0 of 10.
`CC(=O)Nc1c(Cl)c(Cl)c2c(c1Cl)Cc1cc(Cl)ccc1-2`: the survivor count is reported as 6 of 10 (dose: 55.0 mg/kg/injection, schedule: Q01DX011 (ip), vehicle: saline); 3 of 10 (dose: 110.0 mg/kg/injection, schedule: Q01DX011 (ip), vehicle: acetone); 2 of 10 (dose: 450.0 mg/kg/injection, schedule: Q01DX011 (ip), vehicle: saline); 0 of 10 (dose: 900.0 mg/kg/injection, schedule: Q01DX011 (ip), vehicle: other).
For the molecule `NCC(=O)Nc1ccc(O)cc1`, under “dose: 400.0 mg/kg/injection, schedule: Q01DX011 (ip), vehicle: carboxymethylcellulose (CMC)”, the survivor count was 2 of 10 and 4 of 10.
Take `CC(=O)[C@H]1CC[C@H]2[C@@H]3C[C@H](C)C4=CC(=O)CC[C@]4(C)[C@H]3[C@@H](O)C[C@]12C`: the survivor count (dose: 400.0 mg/kg/injection, schedule: Q01DX011 (sc), vehicle: steroid suspending solution) is 3 of 10 and 6 of 10.
Consider `CCOC(=O)C(N)Cc1ccc(N(CCCl)CCCl)cc1` (configuration not stated), for which the survivor count (dose: 9.0 mg/kg/injection, schedule: Q01DX011 (ip), vehicle: saline) was 3 of 10.
`CC1CC2(C)C(=CC1=O)CCC1C3CCC(C)(O)C3(C)CC(O)C12F` (configuration not stated): the T/C under setting [1] is 143 % of control.
Turning to `NC(N)=Nc1nc2ccccc2s1`, the T/C was 139 % of control (dose: 12.5 mg/kg/injection, schedule: Q01DX011 (ip), vehicle: other) and 129 % of control (dose: 12.5 mg/kg/injection, schedule: Q01DX011 (ip), vehicle: water). Also, the survivor count reads like this: (dose: 25.0 mg/kg/injection, schedule: Q01DX011 (ip), vehicle: carboxymethylcellulose (CMC)) 6 of 10; (dose: 50.0 mg/kg/injection, schedule: Q01DX011 (ip), vehicle: carboxymethylcellulose (CMC)) 0 of 10; (dose: 50.0 mg/kg/injection, schedule: Q01DX011 (ip), vehicle: other) 2 of 10.
On to `O=C(OCC1OC(n2cnc3c(=O)[nH]c(=O)[nH]c32)C(OC(=O)c2ccccc2)C1OC(=O)c1ccccc1)c1ccccc1` (configuration not stated), for which the T/C (dose: 120.0 mg/kg/injection, schedule: Q01DX011 (ip), vehicle: carboxymethylcellulose (CMC)) was 130 % of control.
Turning to `Cn1c(N)nc2c(ncn2C2OC(CO)C(O)C2O)c1=O` (configuration not stated), the T/C (dose: 240.0 mg/kg/injection, schedule: Q01DX011 (ip), vehicle: saline) is 131 % of control.
In the case of `Cn1ccc(N)nc1=O`, the T/C under setting [2] is 127 % of control [8 of 10 alive].
Take `CN(C)[C@@H]1C(=O)C(C(=O)NCc2nc3[nH]cnc(=S)c3[nH]2)=C(O)[C@@]2(O)C(=O)C3=C(O)c4c(O)cccc4[C@@](C)(O)[C@H]3C[C@@H]12`: for the setting “dose: 448.0 mg/kg/injection, schedule: Q01DX011 (ip), vehicle: carboxymethylcellulose (CMC)”, the survivor count is recorded as 0 of 10.
For `C/C(=N\NC(=O)c1ccncc1)c1cccc(Cl)c1`, the survivor count reads like this: (dose: 60.0 mg/kg/injection, schedule: Q01DX011 (ip), vehicle: methylcellulose (MC)) 5 of 10; (dose: 120.0 mg/kg/injection, schedule: Q01DX011 (ip), vehicle: methylcellulose (MC)) 2 of 10.
As for `CC1CCN(/N=N/c2nc3c([nH]2)c(=O)n(C)c(=O)n3C)CC1`, the survivor count under setting [3] is given as 4 of 10.
